Here are results for 65 molecules from PubChem BioAssay AID493014 (National Center for Advancing Translational Sciences (NCATS), 2011).

The list shows a part of the results. These are further read-outs of the screen, such as a control signal, another cell line or another target. No call is given for them. Most of these compounds were active or inconclusive in the main read-out, so they are no random draw. Words in brackets tell the shape of the fitted curve; partial curves, single points and poor fits give uncertain potencies.

The experiment can be described thus: qHTS Assay to Find Inhibitors of Chronic Active B-Cell Receptor Signaling. The note with it: ABC-DLBCL IkBa-CBG/CBR reporter, luminescence ratio (green luciferase fused to IkBa over red control in TMD8 lymphoma cells), 4 h. The method, boiled down: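 Doxycycline induced both beetle luciferases in TMD8 lymphoma cells; IKK-driven degradation limits the IkappaBalpha-fused green signal, while red luminescence normalises for cell number and nonspecific effects. Compounds tested up to 46 uM, 4 hrs.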
In general terms: qHTS replaces the single test concentration by a dilution series.

The mark [1] stands for this setting: measured here: CBR red luminescence, cell number.
[2] abbreviates: measured here: IkBa-CBG green luminescence.

The AC50 is the concentration at which the activity in the assay is half-maximal. For `C=CCSC1=C(C#N)C(c2ccc(OCC)cc2)CC(=O)N1` (stereo unspecified), the AC50 under setting [1] is 0.0082 µM [rising, full curve, poor fit].
In the case of `Cc1ccc(-c2nn(-c3ccccc3)cc2CSC(=N)N)cc1`, under setting [1], the AC50 was 14.1 µM [falling, partial curve, poor fit].
Same read-out and setting: in the case of `CC(C)c1ccc(C2NC(=O)NC3=C2CCc2ccccc23)cc1` (stereo unspecified) it was 16.4 µM [rising, partial curve, poor fit]; in that of `O=C1NC[C@@H](Cc2cccc3ccccc23)N(CCc2cc(C(F)(F)F)cc(C(F)(F)F)c2)C1=O`, 22.4 µM [falling, single point].
On to `N#Cc1cc(-c2ccccc2)nc(NN)n1`, for which, under setting [1], the AC50 is 35.5 µM [falling, single point].
The same measure, in the same setting: in the case of `COc1ccc(CN(C)C(=O)c2ccccc2OCc2c(C)noc2C)cc1OC` it was 13 µM [rising, partial curve, poor fit]; in that of `COc1cccc(C(=O)Nc2nc(C)cs2)c1`, 11.2 µM [falling, partial curve, poor fit]; in that of `COCCNC(=O)c1ccc2c(=O)n(Cc3ccco3)c(SCC(=O)NC3CCCCC3)nc2c1`, 35.5 µM [rising, single point].
Same read-out and setting: in the case of `O=C(O)c1ccc(NC(CSCc2cccc(F)c2)C(=O)O)c([N+](=O)[O-])c1` (stereo unspecified) it was 4.61 µM [falling, full curve]; in that of `Cc1ccc(C(C)C)c(OCCCN2CC(C)OC(C)C2)c1` (stereo unspecified), 7.31 µM [rising, partial curve, poor fit].
`Cc1cc(Nc2ccccc2)c2c([N+](=O)[O-])cc(C)c(C)c2n1`: under setting [1], the AC50 is 14.6 µM [rising, single point].
`CCC1(c2ccccc2)NC(=O)N(CC(=O)Nc2cc(S(=O)(=O)N3CCCCCC3)ccc2OC)C1=O` (stereo unspecified): the AC50 under setting [1] was 0.164 µM [rising, full curve].
The same measure, in the same setting: with `Cc1ccc(C2(C)NC(=O)N(CC(=O)Nc3c(C)n(C)n(-c4ccccc4)c3=O)C2=O)cc1` (stereo unspecified) the figure was 29.1 µM [rising, single point].
Same read-out and setting: with `CN(C(=O)CSCC(=O)Nc1ccc(Cl)cc1)C1CCCCC1` the figure was 29.1 µM [falling, single point]; with `CC(C)(C)Nc1nc(N2CCCC2)nc(N2CCCC2)n1`, 1.26 µM [rising, full curve].
The same measure, in the same setting: in the case of `O=C(Oc1cccc(NC(=O)c2ccco2)c1)c1cccc(S(=O)(=O)N2CCCCC2)c1` it was 13 µM [falling, partial curve, poor fit]; in that of `O=C(c1ccccc1-c1nc(-c2ccc(Cl)cc2)no1)N1CCCC1`, 3.98 µM [rising, full curve, poor fit]; in that of `COc1ccc(C(=O)C2CCCN(Cc3cc(Cl)ccc3O)C2)c(OC)c1` (stereo unspecified), 35.5 µM [falling, partial curve, poor fit].
Consider `Cc1ccc(NC(=O)C2COc3ccccc3O2)cc1C` (stereo unspecified), for which the AC50 under setting [1] was 0.398 µM [rising, full curve].
In the case of `O=C(COC(=O)c1ccc(NS(=O)(=O)c2cccs2)cc1O)NCc1ccccc1`, the AC50 under setting [2] was 22.4 µM [falling, single point].
With `CCCOc1ccc(C(=O)C(CCC(CNCC)C(=O)c2ccc(OCCC)cc2)CNCC)cc1` (stereo unspecified), the AC50 under setting [1] is 6.51 µM [falling, full curve].
As to `Cn1c(C(=O)N[C@@H](Cc2ccccc2)C(=O)O)cc2cc(Cl)ccc21`, the AC50 under setting [1] was 8.91 µM [falling, partial curve, poor fit].
On to `CCOC(=O)c1cc(C)sc1N1C(=O)C2C3C=CC(C3)C2C1=O` (stereo unspecified), for which the AC50 under setting [1] was 16.4 µM [falling, single point].
With `CCS(=O)(=O)Nc1cccc(C2=NN(S(=O)(=O)c3ccc(F)cc3)C(c3cccs3)C2)c1` (stereo unspecified), under setting [1], the AC50 is 18.4 µM [falling, single point].
Same read-out and setting: with `CC(C)c1nnc(NC(=O)c2cc3cc(Br)ccc3oc2=O)s1` the figure was 35.5 µM [rising, single point]; with `Cc1ccc(OCc2cc(C(=O)NCCc3cccnc3)no2)cc1C`, 3.55 µM [falling, full curve, poor fit]; with `CCOC(=O)c1nc(N/N=C/c2ccccc2)sc1Br`, 3.98 µM [rising, partial curve, poor fit].
On to `CCOc1cccc2cc(C(=O)Nc3cc(C)on3)c(=O)oc12`, for which the AC50 under setting [1] is 3.26 µM [falling, full curve].
Regarding `N#CC1=C(N)Oc2n[nH]c(-c3cccs3)c2C1c1ccncc1` (stereo unspecified), the AC50 under setting [1] was 14.1 µM [falling, single point].
Turning to `O=C(O)c1ccc(/C=C2\SC(=Nc3ccccc3)N(c3ccccc3)C2=O)cc1`, the AC50 under setting [1] is 6.31 µM [falling, full curve].
The same measure, in the same setting: in the case of `CCOc1cccc(/C=N/Nc2ccc(S(=O)(=O)N(CC)CC)cn2)c1O` it was 13 µM [rising, partial curve, poor fit]; in that of `CCOC(=O)C1(Cc2cccc(F)c2)CCN(Cc2ccon2)CC1`, 5.62 µM [falling, single point]; in that of `COCCn1ccc2c(OCC(=O)Nc3cccc(NC(C)=O)c3)cccc2c1=O`, 3.66 µM [falling, partial curve].
On the same count and under the same terms, with `Cc1c(C(C)C)c(=O)n(-c2ccc(S(=O)(=O)NC3CCCCC3)cc2)n1C` the figure was 35.5 µM [falling, single point]; with `CCCc1cc(=O)n2[nH]c(C(F)(F)F)nc2n1`, 35.5 µM [falling, single point]; with `CCN1CCN(C(=O)C2CCN(C(=O)c3cc4sccc4n3CC)CC2)CC1`, 6.51 µM [falling, single point].
Same read-out and setting: in the case of `CCCCCc1ccc(C2=NNC(=O)CC2)cc1` it was 0.794 µM [rising, full curve, poor fit]; in that of `S=c1nc(-c2cc(Cl)cc(Cl)c2)[nH][nH]1`, 15.8 µM [rising, single point].
Regarding `N/C(=N\OC(=O)CCCOc1ccccc1)c1ccncc1`, the AC50 under setting [1] is 17.8 µM [rising, partial curve, poor fit].
The same measure, in the same setting: in the case of `Cc1cccc(C(=O)Nc2nsc(N)n2)c1` it was 1.46 µM [falling, full curve, poor fit]; in that of `FC(F)(F)c1nc2ccccc2c2nc3ccccc3n12`, 0.00411 µM [rising, full curve, poor fit].
The same measure, in the same setting: in the case of `NNC(=O)c1ccccc1OCCOc1ccccc1` it was 10 µM [falling, partial curve].
Consider `O=C(NCCC1=CCCCC1)C1CCCN(S(=O)(=O)c2cnc[nH]2)C1` (stereo unspecified), for which, under setting [1], the AC50 is 1.84 µM [falling, full curve, poor fit].
On the same count and under the same terms, in the case of `CCn1c(O)c(C=Nc2ccccc2)n(-c2ccccc2)c1=S` it was 32.6 µM [falling, single point].
On the same count and under the same terms, with `C1CCN=C(NC23CC4CC(CC(C4)C2)C3)CC1` the figure was 3.66 µM [rising, full curve, poor fit]; with `Cc1ccc(C(C)(C)C)cc1S(=O)(=O)Nc1cccc(C(=O)N2CCN(c3ccccn3)CC2)c1`, 14.6 µM [falling, single point].
Same read-out and setting: with `O=C(NNc1nc(=O)c2cccnc2s1)c1ccccc1O` the figure was 0.562 µM [falling, full curve].
`c1ccc(-n2nnc(-c3cccnc3)n2)cc1`: the AC50 under setting [1] is 11.2 µM [falling, single point].
Regarding `Cc1cc(C)nc(SCC(=O)Nc2ccc(S(=O)(=O)Nc3ncccn3)cc2)n1`, the AC50 under setting [1] was 10 µM [falling, partial curve].
Same read-out and setting: in the case of `CCOC(=O)Cn1ccc(NC(=O)COc2ccc(F)cc2F)n1` it was 3.55 µM [falling, full curve]; in that of `CO/N=C/C(=N\Nc1cc(OC)cc(OC)c1)C(=O)c1ccccc1`, 3.16 µM [falling, single point]; in that of `COc1ccc(Cl)cc1-c1nc(-c2ccncc2)no1`, 6.51 µM [rising, single point].
For `O=C(O)c1cccc(N2C(=O)c3ccc(Oc4ccc(Cl)cc4)cc3C2=O)c1`, the AC50 under setting [1] was 8.91 µM [falling, single point].
Same read-out and setting: with `O=C1Nc2ccccc2/C1=N\N=C\c1ccc(O)c(O)c1` the figure was 15.8 µM [falling, single point]; with `COc1cc(C(=O)Nc2nc3ccc4nc(C)sc4c3s2)cc(OC)c1OC`, 5.01 µM [falling, full curve]; with `O=C(NCCCn1ccnc1)C(=O)c1c[nH]c2ccccc12`, 6.31 µM [falling, partial curve].
In the case of `N#CC1=C(N)C(C#N)(C#N)C(c2cccnc2)C2CC(c3ccccc3)CC=C12` (stereo unspecified), the AC50 by setting is: under setting [1], 31.6 µM [rising, single point]; under setting [2], 35.5 µM [falling, single point].
Take `CC(=O)Nc1ccc(S(=O)(=O)Nc2nc3ccccc3nc2Sc2nncn2C)cc1`: under setting [1], the AC50 was 35.5 µM [falling, partial curve, poor fit].
In the case of `CCn1c(C)nc2cc(C(=O)OC(C(F)(F)C(F)F)C(F)(F)C(F)F)ccc21`, the AC50 under setting [1] is 29.1 µM [rising, partial curve, poor fit].
Regarding `Nc1ccc(-c2nc3ccc(N)cc3s2)cc1`, the AC50 under setting [1] is 28.2 µM [falling, single point].
`O=C(Cn1c(NCCCO)nc2ccccc21)c1ccc(Br)cc1`: the AC50 under setting [1] was 35.5 µM [falling, single point].
Turning to `CCCc1nn(C)c(C(=O)Nc2ccc(C(C)(C)C)cc2)c1Cl`, the AC50 under setting [1] was 3.26 µM [rising, full curve, poor fit].
The same measure, in the same setting: in the case of `Cn1cc(-c2nc3ccccc3[nH]2)c2ccccc21` it was 23.1 µM [falling, single point].
As to `CCOC(=O)C1(Cc2cccc(Cl)c2)CCCN(C(=O)c2cc(C)n(C)n2)C1` (stereo unspecified), the AC50 under setting [2] is 5.01 µM [falling, partial curve, poor fit].
Take `Cc1ccc(S(=O)(=O)N2CCC(C(=O)NNC(=O)c3cccnc3)CC2)cc1`: the AC50 under setting [1] is 3.16 µM [rising, partial curve, poor fit].
